# Data taken from the supplement of paper PMC3334620.
# The full ranking holds about 33,000 sequences; the median of “E-score (-0.5 to 0.5)” is about -0.0034, and the highest 2% start at about 0.25. This is one part of the list.
# Biological target: T1, Yap3 (UniProt P38749)
# T1 sequence: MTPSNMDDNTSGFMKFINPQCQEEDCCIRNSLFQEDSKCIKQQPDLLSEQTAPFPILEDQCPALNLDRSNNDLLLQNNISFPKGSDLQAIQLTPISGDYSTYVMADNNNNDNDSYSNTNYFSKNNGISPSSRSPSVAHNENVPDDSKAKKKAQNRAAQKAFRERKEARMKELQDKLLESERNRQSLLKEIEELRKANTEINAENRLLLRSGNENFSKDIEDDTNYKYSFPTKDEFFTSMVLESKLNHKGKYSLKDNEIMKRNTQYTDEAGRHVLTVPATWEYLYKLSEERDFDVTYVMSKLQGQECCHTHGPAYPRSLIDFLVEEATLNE
# Experiment: PBM E-score (8-mer binding enrichment) (E-score (-0.5 to 0.5)); higher = stronger / more preferred TF binding
# Conditions: protein concentration: 100 nM; construct: GST-full length
# In short: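 Universal all-10-mer Agilent arrays, fresh or stripped once, were converted to double-stranded form by primer extension. GST-tagged yeast transcription factors from PURExpress in vitro transcription/translation, full-length or DNA-binding domain only, were applied at about 100-200 nM and detected with fluorescent anti-GST. After masliner normalisation, the Universal PBM Analysis Suite scored each ungapped eight-base word together with its reverse complement by E-score.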
row,Sequence,PBM E-score
1,CATTATCA,0.161
2,ACCGCTAA,0.0803
3,AGACAATA,0.339
4,AGCGAAAG,-0.00489
5,TAGTATGA,0.255
6,CGAAAGAG,-0.109
7,GCAAATGA,0.032
8,AATTTGCT,0.115
9,CAAATGCA,0.0707
10,ATAGAAGA,-0.0599
11,GACCAACA,0.166
12,GCATCATA,0.193
13,ACATAGGT,0.0589
14,GAAAGTAC,0.0642
15,ACACTTGA,-0.0909
16,CCACATAC,0.249
17,AGAGCCCC,-0.247
18,GACGATAC,0.0645
19,TCATAGAA,0.155
20,ACACACCA,0.18
21,GTAGACGA,-0.0932
22,CCTACGCC,-0.258
23,AGAGCGAG,-0.0518
24,ATCACGCC,0.00117
25,TCGAAGCA,-0.0793

row,Sequence,PBM E-score
1,GAACCACA,0.182
2,CGCCATAA,0.00011
3,GAGAACAC,-0.00708
4,GACGTGAC,-0.0761
5,CGGACGTC,-0.0436
6,ACCCAGAT,-0.103
7,ATAAGTCC,0.0332
8,TATTAAGA,-0.0373
9,GTATTTGA,0.137
10,ATCTATTC,0.147
11,AGATTTCA,0.0532
12,ATGGCATC,0.125
13,GGAGCGAA,-0.118
14,CGGTACGC,-0.146
15,GGGCAGTA,0.0457
16,GGGTCACA,-0.275
17,CCTGTTCC,-0.0284
18,ACGGGATG,-0.087
19,CGTCGCAC,-0.118
20,GAAAGCGA,0.189
21,AACTGCTA,0.00439
22,CAGGTGTC,-0.0788
23,CCCAAAGA,-0.0276
24,AGCCTCTG,-0.246
25,AACTAAGA,0.203

row,Sequence,PBM E-score
1,GATCTAGA,-0.086
2,ACATCCAT,0.0624
3,ATCTTGTA,-0.0617
4,AGAATGTC,-0.00558
5,TACGGACA,0.00091
6,GACAGTGA,-0.00594
7,TACACGCA,-0.116
8,TAAGCCAA,0.105
9,ACACAATA,0.118
10,CACAACGG,-0.0672
11,CATGGCCG,0.078
12,CTTCGATC,-0.0257
13,TGCACACA,-0.0748
14,ATGGAAGG,-0.139
15,GATCCGTA,-0.126
16,CCTTGAGC,-0.0442
17,ACTGTCAT,0.0728
18,AGATTTAC,0.161
19,GAACCTGC,-0.162
20,AAGCCGTC,0.00506
21,ATGGTACC,0.0191
22,GGAGAGAA,-0.0298
23,AAACAGGC,-0.13
24,AAGAACAA,0.267
25,ATGAAGAG,0.145

row,Sequence,PBM E-score
1,GTTCAAAC,0.0634
2,AGTGGCAC,-0.0705
3,CGGTAACC,-0.182
4,ACAGTCAT,-0.0786
5,AACAGTCA,0.104
6,ACCGCTCC,-0.178
7,ATGACTCA,0.185
8,CTTCGAAA,0.0423
9,AAGTGAGG,-0.0879
10,ATCTACGC,0.0991
11,CAAGAATA,0.144
12,CCCTACCG,-0.205
13,CATACTGC,-0.133
14,CAGGCGGG,-0.132
15,TGGTAGAA,-0.0125
16,TAAAAGAA,0.186
17,CAGCACAG,0.0268
18,AGATCCGC,-0.132
19,ATGCCAAC,0.074
20,CAACGATA,0.0838
21,AAATCTAG,0.0113
22,GCGACTGA,-0.119
23,GTGTTAGA,0.133
24,AGGAGTCG,-0.128
25,GAACAATA,0.142

row,Sequence,PBM E-score
1,CACAGCGG,-0.0949
2,AATAGGGA,-0.0992
3,GCTGGCAA,0.0911
4,ATTAGTGC,0.299
5,TCAGGCGA,-0.0657
6,ACCCGCAA,-0.239
7,ACTTGTTA,0.13
8,CGAACCTA,-0.019
9,CTCACGCA,0.233
10,CCTGGATC,-0.131
11,CTGCGCAG,-0.232
12,ATCTTCTC,0.0857
13,CCATGCCC,-0.24
14,CTGGGCCA,-0.355
15,ATTATAAC,0.118
16,GTGAGATA,0.0843
17,AGAATGTG,0.0491
18,CCTGCCCG,-0.105
19,CGTACAAA,0.108
20,CACGCCAG,-0.23
21,AGACTAAA,0.0718
22,CTTTACCA,0.0597
23,CCGTGCCG,-0.124
24,ATCCGAGC,-0.0401
25,CCACGAAG,-0.199

row,Sequence,PBM E-score
1,CCGTCGCG,0.0551
2,AGGAAGAT,0.13
3,GAGAAGAC,-0.0447
4,AAATTTGT,0.17
5,ATTCCGTG,0.00947
6,ACTATCTA,0.112
7,CAGAAGAG,-0.223
8,GTTCGGGA,0.0952
9,CCGAGAGG,-0.18
10,GAGCAAGA,-0.0492
11,CAGCCTCG,-0.0218
12,GGTGTTTA,0.0984
13,ACATTCGA,0.0603
14,ATAATAAT,0.26
15,AGCAGGAT,0.0353
16,ACCCCCGC,-0.249
17,CGCTCAAC,-0.0371
18,AGCCGGGC,-0.316
19,GGGATATA,0.0741
20,GAACAGAC,0.0459
21,GTTGGGAA,0.014
22,AAACCTTG,-0.0379
23,TCCATCAA,0.0742
24,GGAGGTGA,-0.069
25,ACTGGTCC,-0.136

row,Sequence,PBM E-score
1,CGTAGGAG,-0.179
2,CACGTCAG,0.00064
3,ATAACTAA,0.162
4,ATGTTTAC,0.0808
5,AAGTATCT,0.00464
6,GCGCAGAA,0.117
7,GATGCTTA,-0.0189
8,AGTCAACC,-0.105
9,GGCATTAA,0.0633
10,GGCTGCAC,-0.206
11,GTGGGTAA,-0.0064
12,ACTGAAGT,0.0602
13,GACAGGCA,-0.0173
14,ATTCGATC,0.0899
15,GGTATAGA,0.004
16,CACGCGCC,0.0151
17,AAAGTATT,0.187
18,CGGTGTAA,-0.088
19,GAGCAGGC,-0.199
20,AGCCCCGA,-0.224
21,TAGGCCAA,-0.0211
22,ATCATAAG,0.247
